# Test results taken from publication PMC7515921, “MFSD7C switches mitochondrial ATP synthesis to thermogenesis in response to heme” (Nature Communications, 2020).
# B1: Atxn10 (protein, UniProt P28658 1-475)
# chain: MAAPRMPPSRLSGIMVPAPIQDLEALRALTALFKEQRNRETAPRTIFQRVLDILKKSTHAVELACRDPSQVEHLASSLQLITECFRCLRNACIECSVNQNSIRNLDTIGVAVDLVLLFRELRVEQDSLLTAFRCGLQFLGNVASRNEESQSIVWVHAFPELFMSCLNHPDKKIVAYCSMILFTSLNAERMKDLEENLNIAINVIEAHQKHPASEWPFLIISDHFLKSPELVEAMYGKLSNQERITLLDIVIAKLVGEEQLTKDDISIFVRHAELIANSFMDQCRNVLKLTSEPHTEDKEALVTIRLLDVLCEMTSNTELLGYLQVFPGLMERVIDVLRVIHEVGKESTNIFSPSDSLKAEGDIEHMTEGFKSHLIRLIGNLCYKNKENQDKVNELDGIPLILDSSNIDDNNPFMMQWVVYAVRNLTEDNSQNQDVIAKMEEQGLADASLLKKMGFEIEKSGDKLILKSNNDIPPP
# B2: Tm9sf3 (protein, UniProt Q9ET30 27-587)
# chain: DEHEHTYQDKEEVVLWMNTVGPYHNRQETYKYFSLPFCVGSKKSISHYHETLGEALQGVELEFSGLDIKFKDDVMPGTYCEIDLDKEKRDAFVYAIKNHYWYQMYIDDLPIWGIVGEADENGEDYYLWTYKKLEIGFNGNRIVDVNLTSEGKVKLVPNTKIQMSYSVKWKKSDVKFEDRFDKYLDPSFFQHRIHWFSIFNSFMMVIFLVGLVSMILMRTLRKDYARYSKEEEMDDMDRDLGDEYGWKQVHGDVFRPSSHPLIFSSLIGSGCQIFAVSLIVIIVAMIEDLYTERGSMLSTAIFVYAATSPVNGYFGGSLYARQGGRRWIKQMFIGAFLIPAMVCGTAFFINFIAIYYHASRAIPFGTMVAVCCICFFVILPLNLVGTILGRNLSGQPNFPCRVNAVPRPIPEKKWFMEPAVIVCLGGILPFGSIFIEMYFIFTSFWAYKIYYVYGFMMLVLVILCIVTVCVTIVCTYFLLNAEDYRWQWTSFLSAASTAIYVYMYSFYYYFFKTKMYGLFQTSFYFGYMAVFSTALGIMCGAIGYMGTSAFVRKIYTNVKID
# B3: Lpxn (protein, UniProt Q99N69 1-386)
# chain: MEELDALLEELERCTFQDSEEYSNPVSCHLDQQSTEESKIPQTPKTLSSQGNTSPLKVQLVYATNIQEPNVYSEVQEPKESVLPPKTSAAAQLDELMAHLSEMQAKVSVKADTSRKPLPDQQDHKASLDSMLGDLEQELQDLGIATVPKGYCASCQKPIAGKVIHALGQSWHPEHFVCTHCKEELGSSPFFERSGLAYCSKDYHRLFSPRCAYCAAPITDKVLTAMNKTWHPEHFFCSHCGEVFGAEGFHEKDKKPYCRKDFLAMFSPKCGGCNRPVLENYLSAMNTVWHPECFVCGDCFSSFSSGSFFELDGRPFCELHYHHRRGTLCHDCGQPITGRCISAMGHKFHPEHFVCAFCLTQLPKGIFKEQNNKTYCEKCFTKLFSQ
# B4: Nufip2 (protein, UniProt Q5F2E7 1-692)
# chain: MEEKPGQPQPQHHHSHHHPHHHPQQQQQQQSHHHHHYYFYNHSHNHHHHHHHQQPHQYLQHGAEGSPKAQPKPLKHEQKHTLQQHQETPKKKTGYGEINGNAGEREISLKSLSSDEATNPISRVLNGNQQVVETSLKQTVKTSTFGKAGIKTKNFIQKNSMDKKNGKSYENKSGETQAVDKTDTIAIPNGVITSSSGYITNGYMSKGADNDGSGSESGYTTPKKRKARRNSAKGCENLNLVQDKIMQETSVPALKQGLETLKPDYSEQKGMRVDGSKPIWKYETGPGGTSRGKPAMGDVLRKSSDIKPGLSSKKFDDRPKGKHASAAASKEDSWTLFKPPPVFPVDNSSAKIVPKISYASKVKENLNKTVQNSSVSPSSSSSSSSTGETQTQSSSRLSQVPMSALKSVTSASFSNGPVLAGTDGSVYPSGGQPLLTTAANTLTPISTGTDSVLQDMSLASAAVEQIKSSLFIYPSNMQTVLLSAQVDLPSQTDQQNLGDIFQNQWGLSFINEPSAGPETVIGKSSDHKVMEVTFQGEYPATLVSQGAEIIPSGTEHPVFPKAYELEKRTSPQVLGHILKPGTTESGALSLDPSHIGDLQKADTSSQGALVFLSKDYEIENQNPLASPTNTLLGSAKEQRYQRGLERNDSWGSFDLRAAIVYHTKEMESIWNLQKQDPKRIITYNEAMDSPDQ
# B5: C2orf18 (protein, UniProt Q8VE96 19-372)
# chain: SINTLSAKWADNFVAEGCGGSQEHSFKHPFVQAVGMFLGEFSCLAAFYLLKCQGRRQSASSVEPQQPFNTLLFLPPALCDMTGTSIMYVALNMTSASSFQMLRGAVIIFTGLFSVAFLDRRLAPSQWLGILITIAGLVVVGLADLLSKHDSQHKLSEVITGDLLIIMAQIIIAIQMVLEEKFVYKHNIHPLQAVGIEGFFGFVILSLLLVPMFYIPTASFSGNPRGVLEDALDAFCQVGRQPLIALALLGNISSIAFFNFSGISVTKELSATTRMVLDTLRTIVIWAFTLALGWEIFYPLQILGFLILLMGTALYNGLHRPLLAFLSRRWRLPTQEGEQERLLGDSRTPINEAS
# B6: Tmem165 (protein, UniProt P52875 34-323)
# chain: GPEEDLSHRNQEPPAPAQQLQPQPAAVQGLEPARAEKGLTPVAPVHTNKEDAAAQTNLGFIHAFVAAISVIIVSELGDKTFFIAAIMAMRYNRLTVLAGAMLALALMTCLSVLFGYATTVIPRVYTYYVSTALFAIFGIRMLREGLKMSPDEGQEELEEVQAELKKKDEEFQRTKLLNGPDVETGTSTAIPQKKWLHFISPIFVQALTLTFLAEWGDRSQLTTIVLAAREDPYGVAVGGTVGHCLCTGLAVIGGRMIAQKISVRTVTIIGGIVFLAFAFSALFISPESGF
# B7: Unc93b (protein, UniProt Q8VCW4 1-598)
# chain: MEVEPPLYPVAGAAGPQGDEDRHGVPDGPEAPLDELVGAYPNYNEEEEERRYYRRKRLGVVKNVLAASTGVTLTYGVYLGLLQMQLILHYDETYREVKYGNMGLPDIDSKMLMGINVTPIAALLYTPVLIRFFGTKWMMFLAVGIYALFVSTNYWERYYTLVPSAVALGMAIVPLWASMGNYITRMSQKYYEYSHYKEQDEQGPQQRPPRGSHAPYLLVFQAIFYSFFHLSFACAQLPMIYFLNNYLYDLNHTLINVQSCGTKSQGILNGFNKTVLRTLPRSKNLIVVESVLMAVAFLAMLMVLGLCGAAYRPTEEIDLRSVGWGNIFQLPFKHVRDFRLRHLVPFFIYSGFEVLFACTGFALGYGVCSMGLERLAYLLIAYSLGASASSVLGLLGLWLPRSVPLVAGAGLHLLLTLSLFFWAPAPRVLQHSWIFYFVAALWGVGSALNKTGLSTLLGILYEDKERQDFIFTIYHWWQAVAIFVVYLGSSLPMKAKLAVLLVTLVAAAASYLWMEQKLQQGLVPRQPRIPKPQHKVRGYRYLEEDNSDESDMEGEQGQGDCAEDEAPQAGPLGAEPAGPCRKPCPYEQALGGDGPEEQ
# B8: Scamp3 (protein, UniProt O35609 1-349)
# chain: MAQSRDTGNPFPDSGELDNPFQDPAVIQHRPSQQYATLDVYNPFENREPPPAYEPPAPAPAPLPPPSAPSVQSSRKLSPTEPRNYGSYSTQASAAAATAELLKKQEELNRKAEELDRRERELQHVALGGAGTRQNNWPPLPSFCPVKPCFFQDISMEIPQEFQKTVSTMYYLWMCSTLALLLNFFACLARFCVDTGSGSGFGLSMLWLLLFTPCSFVCWYRPMYKAFRSDSSFNFFVFFFIFFVQDVFFVLQAIGIPGWGFSGWVTALVVVGSKPAVAVLMLLVALLFTGIAVLGIVMLKRIHSLYRQTGASFQKAQQEFAAGVFSNPAVRTAAANAAAGAAENAFRAP
# B9: Sec22b (protein, UniProt O08547 1-215)
# chain: MVLLTMIARVADGLPLAASMQEDEQSGRDLQQYQSQAKQLFRKLNEQSPTRCTLEAGAMTFHYIIEQGVCYLVLCEAAFPKKLAFAYLEDLHSEFDEQHGKKVPTVSRPYSFIEFDTFIQKTKKLYIDSRARRNLGSINTELQDVQRIMVANIEEVLQRGEALSALDSKANNLSSLSKKYRQDAKYLNMRSTYAKLAAVAVFFIMLIVYVRFWWL
# B10: ATP5c1 (endogenous) (protein, UniProt Q91VR2 26-298)
# chain: ATLKDITRRLKSIKNIQKITKSMKMVAAAKYARAERELKPARVYGTGSLALYEKADIKAPEDKKKHLIIGVSSDRGLCGAIHSSVAKQMKNEVAALTAAGKEVMIVGVGEKIKGILYRTHSDQFLVSFKDVGRKPPTFGDASVIALELLNSGYEFDEGSIIFNQFKSVISYKTEEKPIFSLNTIATAETMSIYDDIDADVLQNYQEYNLANLIYYSLKESTTSEQSARMTAMDNASKNASDMIDKLTLTFNRTRQAVITKELIEIISGAAALD
# B11: Slc25a4 (protein, UniProt P48962 1-298)
# chain: MGDQALSFLKDFLAGGIAAAVSKTAVAPIERVKLLLQVQHASKQISAEKQYKGIIDCVVRIPKEQGFLSFWRGNLANVIRYFPTQALNFAFKDKYKQIFLGGVDRHKQFWRYFAGNLASGGAAGATSLCFVYPLDFARTRLAADVGKGSSQREFNGLGDCLTKIFKSDGLKGLYQGFSVSVQGIIIYRAAYFGVYDTAKGMLPDPKNVHIIVSWMIAQSVTAVAGLVSYPFDTVRRRMMMQSGRKGADIMYTGTLDCWRKIAKDEGANAFFKGAWSNVLRGMGGAFVLVLYDEIKKYV
# B12: Slc25a5 (protein, UniProt P51881 1-298)
# chain: MTDAAVSFAKDFLAGGVAAAISKTAVAPIERVKLLLQVQHASKQITADKQYKGIIDCVVRIPKEQGVLSFWRGNLANVIRYFPTQALNFAFKDKYKQIFLGGVDKRTQFWRYFAGNLASGGAAGATSLCFVYPLDFARTRLAADVGKAGAEREFKGLGDCLVKIYKSDGIKGLYQGFNVSVQGIIIYRAAYFGIYDTAKGMLPDPKNTHIFISWMIAQSVTAVAGLTSYPFDTVRRRMMMQSGRKGTDIMYTGTLDCWRKIARDEGSKAFFKGAWSNVLRGMGGAFVLVLYDEIKKYT
# Molecular target: T1, MFSD7C tagged with both Myc and FLAG epitopes (murine) (mouse) (UniProt Q91X85)
# T1 sequence: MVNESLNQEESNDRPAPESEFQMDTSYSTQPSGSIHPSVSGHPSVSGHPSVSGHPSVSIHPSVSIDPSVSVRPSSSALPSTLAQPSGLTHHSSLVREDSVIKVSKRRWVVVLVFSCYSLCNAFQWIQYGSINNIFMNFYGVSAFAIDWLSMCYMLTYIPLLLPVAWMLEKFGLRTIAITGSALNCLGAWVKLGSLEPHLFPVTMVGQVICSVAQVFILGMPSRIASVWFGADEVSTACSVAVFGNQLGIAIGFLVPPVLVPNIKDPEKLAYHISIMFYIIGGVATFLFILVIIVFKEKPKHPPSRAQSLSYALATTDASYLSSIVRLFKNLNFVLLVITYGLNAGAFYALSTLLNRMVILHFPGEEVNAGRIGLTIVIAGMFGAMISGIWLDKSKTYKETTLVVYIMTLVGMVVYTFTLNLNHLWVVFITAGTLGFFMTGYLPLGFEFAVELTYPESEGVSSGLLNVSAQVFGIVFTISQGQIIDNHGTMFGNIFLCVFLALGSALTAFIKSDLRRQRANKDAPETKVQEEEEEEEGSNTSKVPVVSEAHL
# Assay: affinity purification with mass spectrometry; lysate of MH-S cells expressing MFSD7C-FLAG-Myc (control: GFP alone); 20 mM Tris-HCl pH 7.4, 150 mM NaCl, 0.1% NP-40, 10% glycerol; anti-FLAG beads, 3x FLAG peptide elution, then anti-Myc beads; LC-MS/MS
row,Binder,binding
1,B1,binds
2,B2,binds
3,B3,binds
4,B4,binds
5,B5,binds
6,B6,binds
7,B7,binds
8,B8,binds
9,B9,binds
10,B10,binds
11,B11,binds
12,B12,binds

# No constants are given. Whether binding was seen depends on the method and setting. In cells and extracts the contact can be indirect. Here binding means that the protein was enriched with, or labelled near, the bait; the list need not be complete. Sequences can lack the tags named with a protein.
